IC50 and CC50 data for 44 compounds are collected here from PubChem BioAssay AID1332 (Southern Research Institute, 2008).

≈ marks a conversion by molar mass, not a printed value. Some of the results follow. Shown are side measurements of this screen, not its main read-out; they come without a call. A value given as a limit tells only on which side of the number the result lay.

The nature of this experiment: Mycobacterium tuberculosis H37Rv growth inhibition, confirmatory dose response, cytotoxicity (AID 1332).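 On CC50: Vero cells exposed to compounds for 72 hours.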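 On IC50: bacteria incubated 7 days before adding Alamar blue readout reagent.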 Conditions: M. tuberculosis H37Rv growth inhibition; CC50: measured here: Vero cell cytotoxicity; IC50: measured here: IC50 H37Rv replicates.
Consider `c1ccc(CC2=NCCN2)cc1`, for which the IC50 is greater than 20 µg/mL.
The compound `COc1cc2c(c(OC)c1OC)-c1ccc(O)c(=O)cc1[C@@H](N)CC2` came in with a half-maximal cytotoxic concentration (CC50) of 5.18 µg/mL (≈ 15.1 µM) and an IC50 greater than 20 µg/mL.
Taken in the same sequence, the figures for `CN(C)c1ccc(O)c2c1CC1CC3[C@@H](N(C)C)C(=O)C(C(N)=O)=C(O)[C@]3(O)C(=O)C1=C2O` (stereo partly drawn) were greater than 6 µg/mL and 0.524 µg/mL (≈ 1.15 µM).
`O=C1c2ccccc2C(=O)C1c1ccccc1` had a concentration for half-maximal inhibition (IC50) greater than 20 µg/mL.
In the case of `Clc1ccc2c(c1)C(N1CCNCC1)=Nc1ccccc1O2`, the CC50 was greater than 6 µg/mL and the concentration for half-maximal inhibition (IC50) is greater than 20 µg/mL.
The like results for `CC(C)N=C(N)/N=C(\N)Nc1ccc(Cl)cc1` were, in that order, greater than 6 µg/mL and greater than 20 µg/mL.
Consider `O=C(O)CCc1nc(-c2ccccc2)c(-c2ccccc2)o1`, for which the IC50 is greater than 20 µg/mL.
As to `CC[C@H]1OC(=O)[C@H](C)[C@@H](OC2C[C@@](C)(OC)[C@@H](O)[C@H](C)O2)[C@H](C)[C@@H](O[C@@H]2O[C@H](C)C[C@H](N(C)C)[C@H]2O)[C@](C)(O)C[C@@H](C)/C(=N\OCOCCOC)[C@H](C)[C@@H](O)[C@]1(C)O` (stereo partly drawn), the IC50 turned out to be 0.551 µg/mL (≈ 0.659 µM).
`c1cncc([C@H]2CCCCN2)c1` displayed an IC50 greater than 20 µg/mL.
`Cc1ccc(N(CC2=NCCN2)c2cccc(O)c2)cc1` returned an IC50 greater than 20 µg/mL.
In turn, `Cc1c(Cl)cccc1Nc1ccccc1C(=O)O` displayed a half-inhibitory concentration (IC50) greater than 20 µg/mL.
Still for that read-out and setting: in the case of `CO[C@H]1/C=C/O[C@@]2(C)Oc3c(C)c(O)c4c(O)c(c(/C=N/N5CCN(C)CC5)c(O)c4c3C2=O)NC(=O)/C(C)=C\C=C\[C@H](C)[C@H](O)[C@@H](C)[C@@H](O)[C@@H](C)[C@H](OC(C)=O)[C@@H]1C` it was less than 0.04 µg/mL.
Still for that read-out and setting: for `C[C@]12CCC(=O)C=C1CC[C@@H]1[C@@H]2C(=O)C[C@@]2(C)[C@H]1CC[C@]2(O)C(=O)CO` the value was greater than 20 µg/mL.
Still for that read-out and setting: in the case of `COCCCC/C(=N\OCCN)c1ccc(C(F)(F)F)cc1` it was greater than 20 µg/mL.
Consider `C[C@]12CC[C@H](O)C[C@H]1CC[C@@H]1[C@@H]2C[C@@H](O)[C@]2(C)[C@@H](C3=CC(=O)OC3)CC[C@]12O`, for which the CC50 was 0.968 µg/mL (≈ 2.48 µM) and the IC50 is greater than 20 µg/mL.
Taken in the same sequence, the figures for `CC(Cc1ccccc1)NCCC(c1ccccc1)c1ccccc1` (stereo not drawn) were greater than 6 µg/mL and 2.96 µg/mL (≈ 8.99 µM).
The like results for `CCC(C)[C@H]1O[C@]2(C=C[C@@H]1C)C[C@@H]1C[C@@H](C/C=C(\C)C(O[C@H]3C[C@H](OC)C(O[C@H]4C[C@H](OC)[C@@H](O)[C@H](C)O4)[C@H](C)O3)[C@@H](C)/C=C/C=C3\CO[C@@H]4[C@H](O)C(C)=C[C@@H](C(=O)O1)[C@]34O)O2` (stereo partly drawn) were, in that order, greater than 6 µg/mL and 2.16 µg/mL (≈ 2.47 µM).
As for `CC(=O)Oc1cc(C(F)(F)F)ccc1C(=O)O`, the IC50 was greater than 20 µg/mL.
The same measure, in the same setting: in the case of `NCCc1c[nH]c2ccc(O)cc12` it was greater than 20 µg/mL; in that of `CS(=O)(=O)c1ccc([C@@H](O)[C@@H](CO)NC(=O)C(Cl)Cl)cc1`, 1.15 µg/mL (≈ 3.24 µM).
`CC(C)Cc1ccc([C@H](C)C(=O)O)cc1` showed an IC50 greater than 20 µg/mL.
Compound `O=c1[nH]c(=O)n(C2C[C@H](O)[C@@H](CO)O2)cc1C(F)(F)F` (stereo partly drawn) returned a CC50 greater than 6 µg/mL and an IC50 greater than 20 µg/mL.
Taken in the same sequence, the figures for `CN1CCN(CCCN2c3ccccc3Sc3ccc(S(=O)(=O)N(C)C)cc32)CC1` were greater than 6 µg/mL and greater than 20 µg/mL.
On to `COc1c(O[C@@H]2O[C@H](CO)[C@@H](O)[C@H](O)[C@H]2O)cc2c(c1OC)-c1ccc(SC)c(=O)cc1C(NC(C)=O)CC2` (stereo partly drawn), for which the IC50 was greater than 20 µg/mL.
The same measure, in the same setting: for `CC(=O)O[C@]1(C(C)=O)CC[C@H]2[C@@H]3C=C(C)C4=CC(=O)CC[C@@H]4[C@H]3CC[C@@]21C` the value was greater than 20 µg/mL.
`COc1ccc(C[C@H]2NC[C@H](O)[C@H]2OC(C)=O)cc1` returned a CC50 of 0.026 µg/mL (≈ 0.098 µM) and an IC50 greater than 20 µg/mL.
`C#C[C@]1(O)CC[C@H]2[C@@H]3CCC4=CC(=O)CC[C@@H]4[C@H]3CC[C@@]21C` gave a 50% inhibitory concentration (IC50) greater than 20 µg/mL.
As to `COC(=O)C1=C(C)NC(C)=C(C(=O)OC)C1c1ccccc1[N+](=O)[O-]`, the CC50 is greater than 6 µg/mL and the IC50 is greater than 20 µg/mL.
`COc1ccc2c(c1)[nH]c1c(C)nccc12`: the CC50 was found to be 5.95 µg/mL (≈ 28.1 µM) and the IC50 was greater than 20 µg/mL.
With `CCN(CC)CCOC(=O)C1(c2ccc([N+](=O)[O-])cc2)CCCC1`, the IC50 is greater than 20 µg/mL.
Still for that read-out and setting: for `Clc1ccccc1CN1CCc2sccc2C1` the value was greater than 20 µg/mL; for `Nc1ccc(O)c(C(=O)O)c1`, greater than 20 µg/mL; for `Cc1cc(NC(=O)C2=C(O)c3ccccc3S(=O)(=O)N2C)no1`, greater than 20 µg/mL.
On the same count and under the same terms, in the case of `Cc1cc(C(C)(C)CC(C)(C)C)ccc1OCCOCC[N+](C)(C)Cc1ccccc1` it was 3.08 µg/mL; in that of `CO[C@@H]1[C@@H](O[C@@H]2O[C@H](C)[C@@H](O[C@H]3C[C@@](C)(O)[C@@H](O)[C@H](C)O3)[C@H](N(C)C)[C@H]2O)[C@@H](CC=O)C[C@@H](C)[C@@H](O[C@H]2CC[C@H](N(C)C)[C@@H](C)O2)/C=C/C=C/C[C@@H](C)OC(=O)C[C@H]1O`, greater than 20 µg/mL.
Still for that read-out and setting: for `CO[C@@]1(NC(=O)C2SC(=C(C(N)=O)C(=O)O)S2)C(=O)N2C(C(=O)O)=C(CSc3nnnn3C)CS[C@@H]21` (stereo partly drawn) the value was greater than 20 µg/mL.
`CN(C)CCCN1c2ccccc2CCc2ccc(Cl)cc21` returned a CC50 greater than 6 µg/mL and an IC50 of 4.91 µg/mL (≈ 15.6 µM).
For `CCN(CC)CCCC(C)Nc1c2ccc(Cl)cc2nc2ccc(OC)cc12` (stereo not drawn), the CC50 was determined as 1.65 µg/mL (≈ 4.13 µM) and the IC50 was greater than 20 µg/mL.
`CCCCCCCCCCCCCCCC[N+](C)(C)CCN(Cc1ccc(OC)cc1)c1ncccn1` had an IC50 of 0.806 µg/mL.
Turning to `CCNC1(c2cccs2)CCCCC1=O` (stereo not drawn), the IC50 is greater than 20 µg/mL.
Same read-out and setting: for `CC(C)NCC(O)c1ccc(NS(C)(=O)=O)cc1` (stereo not drawn) the value was greater than 20 µg/mL; for `C#C[C@]1(O)CC[C@H]2[C@@H]3CCc4cc(OC)ccc4[C@H]3CC[C@@]21C`, greater than 20 µg/mL; for `CCC1(c2cccc(O)c2)CCCCN(C)C1` (stereo not drawn), greater than 20 µg/mL.
Same read-out and setting: for `CCN1C[C@]2(COC)CC[C@H](O)[C@]34C1[C@](O)([C@@H](OC)[C@H]23)[C@@]1(O)C[C@H](OC)[C@H]2C[C@@H]4[C@@H]1[C@H]2OC` the value was greater than 20 µg/mL.

The term IC50 denotes the point on the concentration scale where inhibition reaches its midpoint. Low values mean higher potency, high ones lower potency. The term CC50 denotes the concentration that lowers cell viability or growth by half. Read a low CC50 as harm at low concentration.
